Measurements from publication doi:10.1101/2022.11.06.515384.
Results are given in words; binding and its absence hold for the method and conditions named. Binding seen in cells or lysates may run through a third protein. Some entries that bind do so weakly or less than the wild type.

Protein sequences, listed by entry. Tags and fused reporters are not part of them.
UniProt P14618: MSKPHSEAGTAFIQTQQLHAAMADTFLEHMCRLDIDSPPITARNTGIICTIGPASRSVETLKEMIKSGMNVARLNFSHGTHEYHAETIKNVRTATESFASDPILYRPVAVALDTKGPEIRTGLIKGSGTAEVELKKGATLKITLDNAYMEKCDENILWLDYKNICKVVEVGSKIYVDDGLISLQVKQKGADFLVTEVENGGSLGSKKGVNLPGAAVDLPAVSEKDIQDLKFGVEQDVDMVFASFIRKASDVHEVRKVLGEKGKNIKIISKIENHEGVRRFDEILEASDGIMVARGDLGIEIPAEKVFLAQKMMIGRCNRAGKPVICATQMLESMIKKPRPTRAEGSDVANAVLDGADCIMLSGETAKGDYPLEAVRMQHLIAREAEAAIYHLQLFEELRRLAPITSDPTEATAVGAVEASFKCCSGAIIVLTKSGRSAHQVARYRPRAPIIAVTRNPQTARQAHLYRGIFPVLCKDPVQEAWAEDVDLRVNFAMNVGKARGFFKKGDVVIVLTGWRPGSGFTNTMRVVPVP
UniProt Q16665: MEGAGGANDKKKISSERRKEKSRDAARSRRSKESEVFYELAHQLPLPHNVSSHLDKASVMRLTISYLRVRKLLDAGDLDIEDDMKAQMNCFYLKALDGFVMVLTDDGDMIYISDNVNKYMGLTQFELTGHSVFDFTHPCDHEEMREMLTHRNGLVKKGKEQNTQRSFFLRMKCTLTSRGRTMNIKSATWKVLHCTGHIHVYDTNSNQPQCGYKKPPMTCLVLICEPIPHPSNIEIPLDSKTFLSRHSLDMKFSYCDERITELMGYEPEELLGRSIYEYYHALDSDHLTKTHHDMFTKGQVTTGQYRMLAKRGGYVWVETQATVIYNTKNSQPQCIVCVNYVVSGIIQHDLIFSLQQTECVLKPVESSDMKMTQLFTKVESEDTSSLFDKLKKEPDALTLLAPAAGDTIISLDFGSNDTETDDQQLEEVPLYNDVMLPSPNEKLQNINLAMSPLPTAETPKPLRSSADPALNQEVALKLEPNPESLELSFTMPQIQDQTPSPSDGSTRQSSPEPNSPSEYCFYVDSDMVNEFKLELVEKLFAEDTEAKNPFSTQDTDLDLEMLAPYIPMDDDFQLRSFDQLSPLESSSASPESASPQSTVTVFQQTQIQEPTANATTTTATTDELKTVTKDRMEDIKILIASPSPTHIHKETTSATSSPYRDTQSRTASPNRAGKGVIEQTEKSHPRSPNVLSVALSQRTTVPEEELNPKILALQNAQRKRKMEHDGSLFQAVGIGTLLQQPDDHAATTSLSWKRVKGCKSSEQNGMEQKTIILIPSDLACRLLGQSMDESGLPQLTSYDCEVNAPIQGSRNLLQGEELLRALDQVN

What was measured:
[1] = target: M2 isoform of pyruvate kinase (PKM2) (human (endogenous in MCF7 and HCC1806)) (UniProt P14618); assay: co-IP
[2] = target: HIF-1α (human (endogenous in MCF7 and HCC1806)) (UniProt Q16665); assay: co-IP

binding [1]	binding [2]	Substance
binds	–	HIF-1α (from UniProt Q16665 1-826)
–	binds	M2 isoform of pyruvate kinase (PKM2) (from UniProt P14618 1-531) (enzyme)
